In article PMC13415819:
Results are given in words; binding and its absence hold for the method and conditions named. Binding seen in cells or lysates may run through a third protein. These calls come from enrichment with a bait or labelling near it, and not all partners need be listed.

The chains behind the UniProt entries cited, without tags or fusion partners. Where a name states a change or a piece, a line headed by the entry shows the natural chain unless it says otherwise. A line that says so, or that is headed by a name, gives the form on record, which may keep a tag or linker.
UniProt O95817: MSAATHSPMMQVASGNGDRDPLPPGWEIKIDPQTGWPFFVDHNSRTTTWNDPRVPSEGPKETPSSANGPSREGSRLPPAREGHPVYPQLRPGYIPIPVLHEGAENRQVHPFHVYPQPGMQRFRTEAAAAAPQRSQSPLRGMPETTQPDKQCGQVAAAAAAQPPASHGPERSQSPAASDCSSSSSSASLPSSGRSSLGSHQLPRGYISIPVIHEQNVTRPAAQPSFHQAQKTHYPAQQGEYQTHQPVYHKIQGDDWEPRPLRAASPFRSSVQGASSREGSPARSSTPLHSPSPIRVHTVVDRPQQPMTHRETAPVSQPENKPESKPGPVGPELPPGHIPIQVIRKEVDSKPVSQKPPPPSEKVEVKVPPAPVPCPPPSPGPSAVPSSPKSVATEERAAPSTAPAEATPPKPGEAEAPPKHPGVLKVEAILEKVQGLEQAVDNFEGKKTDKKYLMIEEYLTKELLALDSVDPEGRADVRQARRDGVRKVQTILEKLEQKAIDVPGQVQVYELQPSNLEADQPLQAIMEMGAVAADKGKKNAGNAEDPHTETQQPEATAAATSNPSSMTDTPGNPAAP
UniProt Q8VHX6: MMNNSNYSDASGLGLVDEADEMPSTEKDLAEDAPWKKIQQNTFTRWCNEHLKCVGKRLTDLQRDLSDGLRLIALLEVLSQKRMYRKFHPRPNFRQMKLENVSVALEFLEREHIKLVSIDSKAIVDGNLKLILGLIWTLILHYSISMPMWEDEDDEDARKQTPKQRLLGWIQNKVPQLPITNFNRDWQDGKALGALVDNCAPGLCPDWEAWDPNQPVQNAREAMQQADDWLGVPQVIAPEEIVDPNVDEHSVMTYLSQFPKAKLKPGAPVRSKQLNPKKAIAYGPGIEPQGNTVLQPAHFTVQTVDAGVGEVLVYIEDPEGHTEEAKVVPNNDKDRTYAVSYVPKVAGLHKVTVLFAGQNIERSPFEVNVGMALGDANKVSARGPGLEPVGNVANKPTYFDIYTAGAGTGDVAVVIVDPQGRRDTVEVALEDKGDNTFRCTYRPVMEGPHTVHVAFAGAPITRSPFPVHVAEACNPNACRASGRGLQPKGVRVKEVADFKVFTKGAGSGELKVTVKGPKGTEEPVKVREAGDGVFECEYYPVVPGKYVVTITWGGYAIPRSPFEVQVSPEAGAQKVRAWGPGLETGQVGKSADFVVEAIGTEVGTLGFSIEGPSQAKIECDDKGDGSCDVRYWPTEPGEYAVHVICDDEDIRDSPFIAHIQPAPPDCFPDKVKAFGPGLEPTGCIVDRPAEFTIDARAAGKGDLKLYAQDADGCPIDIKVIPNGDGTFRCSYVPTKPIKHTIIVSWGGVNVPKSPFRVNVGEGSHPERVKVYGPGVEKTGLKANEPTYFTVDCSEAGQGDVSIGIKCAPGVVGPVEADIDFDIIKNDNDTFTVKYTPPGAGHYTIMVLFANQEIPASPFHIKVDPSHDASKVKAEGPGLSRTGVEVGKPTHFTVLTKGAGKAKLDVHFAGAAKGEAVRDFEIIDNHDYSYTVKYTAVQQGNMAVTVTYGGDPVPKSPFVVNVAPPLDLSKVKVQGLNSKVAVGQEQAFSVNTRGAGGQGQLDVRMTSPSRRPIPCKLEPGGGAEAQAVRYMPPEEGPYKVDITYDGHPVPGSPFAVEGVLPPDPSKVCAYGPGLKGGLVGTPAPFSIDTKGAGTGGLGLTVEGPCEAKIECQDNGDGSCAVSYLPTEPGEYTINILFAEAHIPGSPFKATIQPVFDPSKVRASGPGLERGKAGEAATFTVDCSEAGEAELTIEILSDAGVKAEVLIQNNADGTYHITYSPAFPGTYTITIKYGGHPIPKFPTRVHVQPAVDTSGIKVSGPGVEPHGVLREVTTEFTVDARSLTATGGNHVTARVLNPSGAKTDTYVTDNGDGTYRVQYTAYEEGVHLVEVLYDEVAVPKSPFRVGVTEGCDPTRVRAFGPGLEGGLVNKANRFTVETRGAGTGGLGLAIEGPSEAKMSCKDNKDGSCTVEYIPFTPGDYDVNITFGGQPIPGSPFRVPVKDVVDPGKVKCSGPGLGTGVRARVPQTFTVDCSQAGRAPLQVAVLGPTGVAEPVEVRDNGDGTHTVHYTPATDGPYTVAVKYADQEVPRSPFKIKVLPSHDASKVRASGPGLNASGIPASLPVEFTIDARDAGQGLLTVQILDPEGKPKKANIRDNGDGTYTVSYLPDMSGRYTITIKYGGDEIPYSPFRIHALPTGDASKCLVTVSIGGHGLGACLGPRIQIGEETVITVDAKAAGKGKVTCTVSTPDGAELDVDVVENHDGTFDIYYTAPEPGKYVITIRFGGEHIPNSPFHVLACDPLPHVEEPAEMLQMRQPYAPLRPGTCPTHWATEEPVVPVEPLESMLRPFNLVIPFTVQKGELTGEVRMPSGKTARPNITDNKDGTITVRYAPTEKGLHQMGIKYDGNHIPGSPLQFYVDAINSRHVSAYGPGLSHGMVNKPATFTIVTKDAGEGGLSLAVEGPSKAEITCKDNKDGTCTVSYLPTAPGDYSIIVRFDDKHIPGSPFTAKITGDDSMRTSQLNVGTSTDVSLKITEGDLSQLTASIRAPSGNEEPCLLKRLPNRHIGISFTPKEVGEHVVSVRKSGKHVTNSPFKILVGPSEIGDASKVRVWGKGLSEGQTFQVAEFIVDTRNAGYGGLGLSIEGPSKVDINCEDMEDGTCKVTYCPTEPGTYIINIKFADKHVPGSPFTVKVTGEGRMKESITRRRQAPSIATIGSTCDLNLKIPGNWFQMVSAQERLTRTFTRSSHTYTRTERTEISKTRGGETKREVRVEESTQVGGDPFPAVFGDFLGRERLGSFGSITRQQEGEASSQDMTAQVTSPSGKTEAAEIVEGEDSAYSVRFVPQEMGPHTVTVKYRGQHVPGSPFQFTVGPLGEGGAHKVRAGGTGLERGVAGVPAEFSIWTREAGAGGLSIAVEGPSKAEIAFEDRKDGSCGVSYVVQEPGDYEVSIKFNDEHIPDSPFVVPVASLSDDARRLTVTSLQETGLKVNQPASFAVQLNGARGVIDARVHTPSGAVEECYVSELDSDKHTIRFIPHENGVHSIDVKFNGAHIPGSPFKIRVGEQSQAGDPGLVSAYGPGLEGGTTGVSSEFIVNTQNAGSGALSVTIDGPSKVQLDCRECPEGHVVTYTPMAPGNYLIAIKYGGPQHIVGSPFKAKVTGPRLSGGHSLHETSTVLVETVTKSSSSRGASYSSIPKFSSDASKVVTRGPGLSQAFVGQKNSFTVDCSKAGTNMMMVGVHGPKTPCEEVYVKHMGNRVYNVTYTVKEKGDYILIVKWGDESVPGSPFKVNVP
UniProt P51150: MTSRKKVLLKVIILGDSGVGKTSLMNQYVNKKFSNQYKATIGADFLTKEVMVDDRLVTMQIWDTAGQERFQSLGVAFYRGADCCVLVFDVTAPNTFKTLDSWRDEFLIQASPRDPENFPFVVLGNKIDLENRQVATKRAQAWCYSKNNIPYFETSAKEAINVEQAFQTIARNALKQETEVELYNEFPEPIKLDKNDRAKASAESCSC
XIRP1 (O70373, form named): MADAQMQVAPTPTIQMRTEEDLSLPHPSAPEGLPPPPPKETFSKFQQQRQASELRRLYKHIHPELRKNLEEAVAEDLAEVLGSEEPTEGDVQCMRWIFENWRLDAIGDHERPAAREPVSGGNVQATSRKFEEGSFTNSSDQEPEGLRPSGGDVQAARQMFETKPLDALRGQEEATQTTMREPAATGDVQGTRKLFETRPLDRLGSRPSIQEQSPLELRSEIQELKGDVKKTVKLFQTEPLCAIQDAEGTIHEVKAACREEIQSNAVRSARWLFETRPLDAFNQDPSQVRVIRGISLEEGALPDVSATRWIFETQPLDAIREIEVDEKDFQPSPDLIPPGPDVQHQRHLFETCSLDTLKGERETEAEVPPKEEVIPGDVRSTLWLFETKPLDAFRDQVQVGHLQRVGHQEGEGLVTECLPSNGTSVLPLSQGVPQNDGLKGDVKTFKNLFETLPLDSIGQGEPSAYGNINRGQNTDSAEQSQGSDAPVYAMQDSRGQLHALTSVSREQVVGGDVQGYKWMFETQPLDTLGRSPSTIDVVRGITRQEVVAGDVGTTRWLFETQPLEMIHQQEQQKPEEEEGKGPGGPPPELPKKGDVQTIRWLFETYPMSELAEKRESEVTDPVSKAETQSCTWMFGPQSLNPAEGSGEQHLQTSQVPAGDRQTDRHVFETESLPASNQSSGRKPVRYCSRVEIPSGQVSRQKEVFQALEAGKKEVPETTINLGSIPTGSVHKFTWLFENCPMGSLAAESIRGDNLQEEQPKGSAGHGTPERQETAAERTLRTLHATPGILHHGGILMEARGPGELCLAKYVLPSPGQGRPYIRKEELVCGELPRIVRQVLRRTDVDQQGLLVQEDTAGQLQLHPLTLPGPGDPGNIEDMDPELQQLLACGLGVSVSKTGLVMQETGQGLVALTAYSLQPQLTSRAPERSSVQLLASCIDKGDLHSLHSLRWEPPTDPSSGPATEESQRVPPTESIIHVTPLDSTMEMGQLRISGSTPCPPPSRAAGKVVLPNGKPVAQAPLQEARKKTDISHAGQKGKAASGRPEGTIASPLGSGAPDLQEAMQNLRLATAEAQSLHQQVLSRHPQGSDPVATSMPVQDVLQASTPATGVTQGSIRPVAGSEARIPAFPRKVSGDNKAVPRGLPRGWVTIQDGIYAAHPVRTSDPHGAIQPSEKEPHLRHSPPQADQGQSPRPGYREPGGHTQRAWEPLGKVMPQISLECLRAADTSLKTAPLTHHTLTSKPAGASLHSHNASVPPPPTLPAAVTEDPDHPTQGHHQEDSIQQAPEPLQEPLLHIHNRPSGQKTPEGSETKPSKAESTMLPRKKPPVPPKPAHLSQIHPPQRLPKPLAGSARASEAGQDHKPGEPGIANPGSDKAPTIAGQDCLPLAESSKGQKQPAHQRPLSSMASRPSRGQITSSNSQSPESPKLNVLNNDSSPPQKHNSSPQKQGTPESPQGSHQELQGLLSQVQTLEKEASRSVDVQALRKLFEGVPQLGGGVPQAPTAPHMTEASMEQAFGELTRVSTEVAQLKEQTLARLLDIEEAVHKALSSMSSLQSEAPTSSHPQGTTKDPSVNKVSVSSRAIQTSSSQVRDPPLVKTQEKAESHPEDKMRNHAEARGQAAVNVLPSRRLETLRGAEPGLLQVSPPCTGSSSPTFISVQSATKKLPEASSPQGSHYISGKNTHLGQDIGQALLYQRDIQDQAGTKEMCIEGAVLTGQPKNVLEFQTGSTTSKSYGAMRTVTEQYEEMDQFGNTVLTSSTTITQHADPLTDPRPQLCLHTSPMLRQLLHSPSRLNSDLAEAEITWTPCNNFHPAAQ

B1: PDLIM3 (endogenous, C2C12) (protein, UniProt O70209 1-316)
chain: MPQNVVLPGPAPWGFRLSGGIDFNQPLVITRITPGSKAAAANLCPGDVILAIDGFGTESMTHADAQDRIKAASYQLCLKIDRAETRLWSPQVSEDGKAHPFKINLEAEPQEFKPIGTAHNRRAQPFVAAANIDDKRQVVSASYNSPIGLYSTSNIQDALHGQLRGLIPGSLQNEPTASVPPQSDVYRMLHDNRDDPAAPRQSGSFRVLQDLVNDGPDDRPAGTRSVRAPVTKVHGGAGSAQRMPLCDKCGSGIVGAVVKARDKYRHPECFVCADCNLNLKQKGYFFVEGELYCETHARARTRPPEGYDTVTLYPKA
B2: synaptopodin-2/myopodin (SYNPO2) (protein, UniProt Q91YE8 1-1087)
chain: MGTGDFICISMTGGAPWGFRLQGGKEEQQPLQVAKIRSQSKASGSGLREGDEVVSINGNPCADLTYPEVIKLMEGITDSLHLLVKRPSSGTSETLDSESETTNHQHLTHEGPMESTTLQIQQATETQSEDFFLAPVQTKVPLTEDQSNAWGYAECPKEEQAPPMLGSQEGHLVEEVILRQKAEAGQPGHVVELQLSLSKERHQCTSGPIVTLQGNDKSTSPDPDWSSQLERTVHINSIPAPEKADTSLTSSTSSGRELRVIQGRDPGGAGLPQVEVILDCSDRLKAEECRLQTGRGCVASPVEGGRSEAPPSLVSFAVSSEGTEHGEDQRSGKDQSRPHKHRARHARLRRSESLSEKQVKEAKSKCKSIALLLTDAPNPNSKGVLMFKKRRRRARKYTLVSYGTGELEREEEEEEDQEAGDKDEISEVAFLGTSESEVDEELLSDVDDNTQVVNFDWDSGLVDIEKRLNRGDKMEMLPDTTGKGALMFAKRRERMEQFTAQNEEEKTGGMAGGGPDALQTDGLRTMTSYQRKEESVRMQSSVSESSFQMGRSLASVPQQNGFSGVSETAGAQRMFPMNRTAKPFLGSMNQPAAPFSPTRSVTSPISDFPAPPPYSAVSPPPEAFSRGVSSPVAGPAQPPPWPQPAPWSQPAFYDSSEQIASRDERIAVPAKRTGILQEAKRRGTTKPMFTFKETKVSPNPELLSLLQNAEGKRGTGGDSGPEEDYLSLGAEACNFMQSSAKQKTPPPVAPKPAVKSPSSSQPVAPVSPVWSPGVAPAQRPAFSTSNPPNPPQVTAVSSIKIAQPAAPPARPASALNLAGPFKGPQAVVVSHNYTPKPSAPTPLVNAAPAGAGGPSNELPGMSGKGAQLFAKRQSRMEKYVVDSDTVQAHTVRAQSPTPSLPASWKYSSNVRAPPPVAYNPIHSPSYPLAAIKSQPPGAQASKTSKKKGKKPLNTLDVMKHQPYQLNASLFTFQPPDSKDGLPQKSTVKVSSAPAMKQALPPRQANVGSPTNAQASSVYSVPAYTSQPNFFAAEATSPVSASPVPVSVPTSPKQESTSTSYFVAPRPKFSAKKSGVTVQVWKPSVVEE
B3: SYNPO (protein, UniProt Q8CC35 1-929)
chain: MLGAHFPPPPLGASEGRAAPCTFQIPDGSYRCLALEAEESSSEDGLQGEVRLVDLEEEGTSQSRANHGTPPLSRAPAIIQPSSCHREARGGFQRSDRPSHDWDVVQARKVMTASGSSSPVPRVAQKPALGRSTSFTENDLKEAKARSQQIAAQLTTPPSSNSRGVQLFNRRRQRVNEFTLESRGQRSPKLNQEALQTGRPLSPIGHAPGPSVKPTSPSKPGSPKHPSPQSPSRGVAGHIMEGYSEEASLLRHLEKVASEEEEVPLVVYLKENAALLTANGLHLSQSRETQQSSPNPPDTEVPSPAADINQNPSSPNATLTTLASSSHHSQPTADINQNPPAAITPVPQNSSQAQCSPNGTLDSKPGTLCADDGQSPVPAEEVRSSILLIDKVSAPPSAASTFSREATPLSSSGPPAADLMSSSLLIDMQPSTLVAPAEQEVPGHVAVTTPTKVYSEVHLTLAKPASVVNRTARPFGIQSPGTSQIEQSPMMGRRQFGEKAWAPPASSMADRSPQPQRHIMSRSPMVERRLLGQRSPVLERRPLGNFTPPPTYAETLSTAPVASRVRSPPSYSTLYPSSDPKPSHLKGQVAPANKTGILEESMARRGSRKSMFTFVEKPKVTPNPDLLDLVQTADEKRRQRDHGEVGMEEEPFALGAEASNFQQEPIARDRASPAAAEEAVPEWASCLKSPRIQAKPKPKPNQNLSEASGKGAELYARRQSRMEKYVIESSGHAELARCPSPTMSLPSSWKYTTNAPGGFRVASLSPARTPPASLYHGYLPENGVLRPEPTKQQPYQMRPSLYALSPVKEPAKASSRATSSRTPSRTVSPRAASPAKPSSLDLVPNLPRAGLPPSPALPRPSRSSPGLYTAPVQDSLQPTAVSPTYSSDISPVSPSRAWSPRAKQAPRPSFSTRNAGIEAQVWKPSFCFK

Target: TurboID-BAG3 (human) (UniProt O95817)
Test: proximity labelling; C2C12 myotubes stably expressing TurboID-BAG3, differentiated 7 days, 50 µM biotin for 1.5 h at 37 °C; biotinylated proteins purified on Streptavidin-Sepharose and identified by mass spectrometry (DIA); compared with control samples

binding, binds:
Filamin C (FLNC) (from UniProt Q8VHX6 1-2726)
RAB7A (from UniProt P51150 1-207)
XIRP1 (from UniProt O70373 1-1813)
XIRP2 (from UniProt Q4U4S6 1-3784)
B1
B2
B3
